According to article PMC4678824:
No constants are given. Whether binding was seen depends on the method and setting.

Target: full-length human GEN1 protein (human) (UniProt Q17RS7)
Experiment: condition: ~5 μg in 50 μl (size exclusion); ~15 μg in 150 μl (glycerol gradient); SEC + other: glycerol gradient sedimentation; Superdex 200 PC 3.2/30 at 4°C and 15-35% glycerol gradient (42,000 rpm, 16 h, 4°C), both in 40 mM Tris-HCl pH 7.5, 250 mM NaCl, 10% glycerol, 0.1 mM EDTA, 0.05% NP-40, 1 mM DTT; GEN1 detected by western blotting; native molecular weight calculated from Stokes radius and S-value; no DNA present; both purified

binding: no binding
B1: full-length human GEN1 protein (enzyme, UniProt Q17RS7 1-908)
chain: MGVNDLWQILEPVKQHIPLRNLGGKTIAVDLSLWVCEAQTVKKMMGSVMKPHLRNLFFRISYLTQMDVKLVFVMEGEPPKLKADVISKRNQSRYGSSGKSWSQKTGRSHFKSVLRECLHMLECLGIPWVQAAGEAEAMCAYLNAGGHVDGCLTNDGDTFLYGAQTVYRNFTMNTKDPHVDCYTMSSIKSKLGLDRDALVGLAILLGCDYLPKGVPGVGKEQALKLIQILKGQSLLQRFNRWNETSCNSSPQLLVTKKLAHCSVCSHPGSPKDHERNGCRLCKSDKYCEPHDYEYCCPCEWHRTEHDRQLSEVENNIKKKACCCEGFPFHEVIQEFLLNKDKLVKVIRYQRPDLLLFQRFTLEKMEWPNHYACEKLLVLLTHYDMIERKLGSRNSNQLQPIRIVKTRIRNGVHCFEIEWEKPEHYAMEDKQHGEFALLTIEEESLFEAAYPEIVAVYQKQKLEIKGKKQKRIKPKENNLPEPDEVMSFQSHMTLKPTCEIFHKQNSKLNSGISPDPTLPQESISASLNSLLLPKNTPCLNAQEQFMSSLRPLAIQQIKAVSKSLISESSQPNTSSHNISVIADLHLSTIDWEGTSFSNSPAIQRNTFSHDLKSEVESELSAIPDGFENIPEQLSCESERYTANIKKVLDEDSDGISPEEHLLSGITDLCLQDLPLKERIFTKLSYPQDNLQPDVNLKTLSILSVKESCIANSGSDCTSHLSKDLPGIPLQNESRDSKILKGDQLLQEDYKVNTSVPYSVSNTVVKTCNVRPPNTALDHSRKVDMQTTRKILMKKSVCLDRHSSDEQSAPVFGKAKYTTQRMKHSSQKHNSSHFKESGHNKLSSPKIHIKETEQCVRSYETAENEESCFPDSTKSSLSSLQCHKKENNSGTCLDSPLPLRQRLKLRFQST
